According to paper PMC4203773:
These are yes or no findings as the source states them, for the method shown. Binding calls can cover weak binding; strength is not graded here.

Assays:
Assay in all cases: two-hybrid; Matchmaker Gold Yeast 2-Hybrid System; Kctd12.1 in pGAD (Gal4 activation domain), Ulk2 fragments in pGBK (Gal4 DNA-binding domain, bait); Y2H Gold yeast; five fold serial dilutions spotted on -LEU -TRP and on -ADE -HIS -LEU -TRP plates; growth after 2-3 days at 30°C
[1] = biological target: Ulk2 PS domain fragment PS1.4–1.5 (zebrafish (Danio rerio))
[2] = biological target: Ulk2 PS domain fragment PS-1 (272-401) (zebrafish (Danio rerio))
[3] = biological target: Ulk2 PS domain fragment PS1.3–1.4 (zebrafish (Danio rerio))

Measured: binding

B1: Kctd12.1 (protein, UniProt Q804Q4 1-288)
chain: MALADPECGISNGADSASPFSVIIELNVGGQVYVTRHTTLIAVPDSLLWNMFSKKTPAELARDSKGRFFLDRDGFLFRYILDYLRDLNLVLPDYFPEKSRLQREAEFFQLRDLSKLLSPKMSKDNSITDEICQSDSEEPSASATPVVGPETSRTLSVASSAHSPSLESRKSGYITVGYRGSYTMGRDIQTDAKFRRVARITVCGKTSLAKEVFGDTLNESRDPDRPPERYTSRYYLKYNFLEQAFDKLSEFGFQMVACSSTGTCAYSSSDPNEDKVWTSYTEYVFCRE
binds: all assays above
